Results from article PMC11445549.
No constants are given. Whether binding was seen depends on the method and setting. In cells and extracts the contact can be indirect. Some entries that bind do so weakly or less than the wild type. Where a sequence is shown, tags or fusion partners need not be part of it.

Sequences of proteins named here, by UniProt entry; tags and fusion partners are left off.
UniProt P19474: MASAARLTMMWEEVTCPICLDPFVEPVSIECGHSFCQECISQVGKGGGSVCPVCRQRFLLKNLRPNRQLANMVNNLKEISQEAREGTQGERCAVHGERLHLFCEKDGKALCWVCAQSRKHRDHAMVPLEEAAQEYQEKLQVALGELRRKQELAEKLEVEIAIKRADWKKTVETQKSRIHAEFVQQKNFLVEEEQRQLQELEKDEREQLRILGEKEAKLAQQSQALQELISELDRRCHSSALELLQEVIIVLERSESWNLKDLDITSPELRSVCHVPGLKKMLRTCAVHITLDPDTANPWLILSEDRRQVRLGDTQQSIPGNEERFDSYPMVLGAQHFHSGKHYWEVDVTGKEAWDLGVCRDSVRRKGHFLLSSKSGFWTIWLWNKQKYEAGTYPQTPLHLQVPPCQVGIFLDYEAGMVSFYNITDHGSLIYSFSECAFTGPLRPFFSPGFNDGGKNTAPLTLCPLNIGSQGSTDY

Columns and labels:
[1] = molecular target: T1, Flag-EPDR1 (ependymin-related protein 1) (UniProt Q9UM22); experiment: co-IP; HepG2 cells infected with lentivirus carrying Flag-EV or Flag-EPDR1 together with HA-TRIM21; lysates (1% NP-40 IP buffer) immunoprecipitated with anti-Flag, blotted for Flag and HA
T1 sequence: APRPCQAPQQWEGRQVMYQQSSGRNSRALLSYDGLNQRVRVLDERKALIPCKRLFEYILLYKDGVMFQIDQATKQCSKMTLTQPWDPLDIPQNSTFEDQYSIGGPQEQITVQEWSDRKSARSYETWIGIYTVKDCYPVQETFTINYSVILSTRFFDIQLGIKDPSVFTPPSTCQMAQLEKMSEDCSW

Flag-IKBKB = molecular target: T2, Flag-IKBKB (UniProt O14920); experiment: co-IP; HEK293T cells transfected with a Flag-tagged and an HA-tagged protein; lysates (1% NP-40 IP buffer) immunoprecipitated with anti-Flag, blotted for HA
T2 sequence: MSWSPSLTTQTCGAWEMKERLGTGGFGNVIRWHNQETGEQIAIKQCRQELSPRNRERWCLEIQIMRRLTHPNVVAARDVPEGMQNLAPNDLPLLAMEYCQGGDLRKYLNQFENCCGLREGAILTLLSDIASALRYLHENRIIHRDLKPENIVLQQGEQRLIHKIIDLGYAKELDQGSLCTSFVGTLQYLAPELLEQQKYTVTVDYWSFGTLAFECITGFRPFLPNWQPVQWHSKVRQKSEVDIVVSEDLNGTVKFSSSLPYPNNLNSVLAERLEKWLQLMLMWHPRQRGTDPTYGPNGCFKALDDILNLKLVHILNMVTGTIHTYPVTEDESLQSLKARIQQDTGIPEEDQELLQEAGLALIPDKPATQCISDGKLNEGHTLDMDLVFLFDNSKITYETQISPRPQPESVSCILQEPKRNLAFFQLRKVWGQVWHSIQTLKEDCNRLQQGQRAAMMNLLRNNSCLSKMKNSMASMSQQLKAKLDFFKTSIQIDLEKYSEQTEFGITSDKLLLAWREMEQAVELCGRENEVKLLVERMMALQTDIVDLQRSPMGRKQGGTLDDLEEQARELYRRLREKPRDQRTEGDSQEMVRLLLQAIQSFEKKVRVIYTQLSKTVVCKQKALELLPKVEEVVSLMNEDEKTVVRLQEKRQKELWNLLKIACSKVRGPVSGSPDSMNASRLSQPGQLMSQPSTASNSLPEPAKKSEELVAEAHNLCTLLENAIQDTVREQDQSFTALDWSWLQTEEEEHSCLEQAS

[2] = molecular target: T1, Flag-EPDR1 (ependymin-related protein 1); experiment: as above

Measured: binding

HA-TRIM21 (from UniProt P19474 1-475)
binds: all assays above
